{"source": "paper PMC9682754", "key": {"[1]": {"molecular_target": "T1, CD6 cytosolic deletion mutant CD6Δcyt (UniProt P30203)", "T1 sequence": "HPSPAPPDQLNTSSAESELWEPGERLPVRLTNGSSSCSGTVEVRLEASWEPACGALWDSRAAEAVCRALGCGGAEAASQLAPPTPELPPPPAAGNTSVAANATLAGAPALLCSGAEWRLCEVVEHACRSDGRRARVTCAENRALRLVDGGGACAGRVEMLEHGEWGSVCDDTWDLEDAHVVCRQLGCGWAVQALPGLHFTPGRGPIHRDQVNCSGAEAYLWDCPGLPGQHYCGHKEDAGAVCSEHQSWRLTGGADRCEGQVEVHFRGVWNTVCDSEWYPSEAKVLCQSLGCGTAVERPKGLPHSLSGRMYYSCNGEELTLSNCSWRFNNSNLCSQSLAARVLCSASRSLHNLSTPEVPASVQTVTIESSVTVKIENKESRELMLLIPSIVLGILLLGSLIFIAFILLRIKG", "test": "co-IP; E6.1 cells not activated (no pervanadate); same Triton X-100 lysis buffer; CD6 immunoprecipitated with mAb MEM98 on Protein A Sepharose; RasGAP detected by western blot"}, "CD6 wild-type (CD6WT) [2]": {"molecular_target": "T2, CD6 wild-type (CD6WT) (UniProt P30203)", "T2 sequence": "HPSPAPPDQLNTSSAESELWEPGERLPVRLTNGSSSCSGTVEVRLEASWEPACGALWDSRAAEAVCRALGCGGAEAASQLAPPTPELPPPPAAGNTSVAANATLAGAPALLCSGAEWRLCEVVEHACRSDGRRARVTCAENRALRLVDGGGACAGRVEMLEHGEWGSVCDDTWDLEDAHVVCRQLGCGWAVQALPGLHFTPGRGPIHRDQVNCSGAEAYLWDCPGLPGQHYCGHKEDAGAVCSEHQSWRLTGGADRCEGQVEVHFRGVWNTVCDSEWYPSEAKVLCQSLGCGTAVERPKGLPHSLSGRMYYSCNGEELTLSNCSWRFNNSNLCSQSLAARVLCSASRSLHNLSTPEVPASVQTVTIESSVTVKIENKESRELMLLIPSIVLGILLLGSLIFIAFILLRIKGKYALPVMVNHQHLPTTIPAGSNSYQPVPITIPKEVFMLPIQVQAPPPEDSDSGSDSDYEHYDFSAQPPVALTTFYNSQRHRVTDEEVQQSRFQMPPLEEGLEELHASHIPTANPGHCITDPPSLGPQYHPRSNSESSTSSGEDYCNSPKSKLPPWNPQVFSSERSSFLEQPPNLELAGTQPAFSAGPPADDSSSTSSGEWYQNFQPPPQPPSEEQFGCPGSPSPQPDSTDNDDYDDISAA", "test": "condition: only cells not activated with pervanadate; co-IP; E6.1 cells not activated (no pervanadate); same Triton X-100 lysis buffer; CD6 immunoprecipitated with mAb MEM98 on Protein A Sepharose; RasGAP detected by western blot"}, "[3]": {"molecular_target": "T1, CD6 cytosolic deletion mutant CD6Δcyt", "test": "co-IP; E6.1 cells activated with pervanadate for 5 min at 37 °C; lysed in 1% Triton X-100, 10 mM Tris-Cl pH 7.4, 150 mM NaCl, 1 mM EDTA, 1 mM PMSF, 1 mM orthovanadate; CD6 immunoprecipitated with mAb MEM98 on Protein A Sepharose; RasGAP detected by western blot"}, "CD6 wild-type (CD6WT) [4]": {"molecular_target": "T2, CD6 wild-type (CD6WT)", "test": "co-IP; E6.1 cells activated with pervanadate for 5 min at 37 °C; lysed in 1% Triton X-100, 10 mM Tris-Cl pH 7.4, 150 mM NaCl, 1 mM EDTA, 1 mM PMSF, 1 mM orthovanadate; CD6 immunoprecipitated with mAb MEM98 on Protein A Sepharose; RasGAP detected by western blot"}}, "note": "No constants are given. Whether binding was seen depends on the method and setting. Binding seen in cells or lysates may run through a third protein. Some results given as binding are weak or reduced against the parent protein; the word gives no strength."}
{"binder": "Ras GTPase-activating protein 1 (RasGAP) (enzyme, UniProt P20936 1-1047) MMAAEAGSEEGGPVTAGAGGGGAAAGSSAYPAVCRVKIPAALPVAAAPYPGLVETGVAGTLGGGAALGSEFLGAGSVAGALGGAGLTGGGTAAGVAGAAAGVAGAAVAGPSGDMALTKLPTSLLAETLGPGGGFPPLPPPPYLPPLGAGLGTVDEGDSLDGPEYEEEEVAIPLTAPPTNQWYHGKLDRTIAEERLRQAGKSGSYLIRESDRRPGSFVLSFLSQMNVVNHFRIIAMCGDYYIGGRRFSSLSDLIGYYSHVSCLLKGEKLLYPVAPPEPVEDRRRVRAILPYTKVPDTDEISFLKGDMFIVHNELEDGWMWVTNLRTDEQGLIVEDLVEEVGREEDPHEGKIWFHGKISKQEAYNLLMTVGQVCSFLVRPSDNTPGDYSLYFRTNENIQRFKICPTPNNQFMMGGRYYNSIGDIIDHYRKEQIVEGYYLKEPVPMQDQEQVLNDTVDGKEIYNTIRRKTKDAFYKNIVKKGYLLKKGKGKRWKNLYFILEGSDAQLIYFESEKRATKPKGLIDLSVCSVYVVHDSLFGRPNCFQIVVQHFSEEHYIFYFAGETPEQAEDWMKGLQAFCNLRKSSPGTSNKRLRQVSSLVLHIEEAHKLPVKHFTNPYCNIYLNSVQVAKTHAREGQNPVWSEEFVFDDLPPDINRFEITLSNKTKKSKDPDILFMRCQLSRLQKGHATDEWFLLSSHIPLKGIEPGSLRVRARYSMEKIMPEEEYSEFKELILQKELHVVYALSHVCGQDRTLLASILLRIFLHEKLESLLLCTLNDREISMEDEATTLFRATTLASTLMEQYMKATATQFVHHALKDSILKIMESKQSCELSPSKLEKNEDVNTNLTHLLNILSELVEKIFMASEILPPTLRYIYGCLQKSVQHKWPTNTTMRTRVVSGFVFLRLICPAILNPRMFNIISDSPSPIAARTLILVAKSVQNLANLVEFGAKEPYMEGVNPFIKSNKHRMIMFLDELGNVPELPDTTEHSRTDLSRDLAALHEICVAHSDELRTLSNERGAQQHVLKKLLAITELLQQKQNQYTKTNDVR", "values": [{"measurement": "binding", "setting": "[1]", "value": "no binding"}, {"measurement": "binding", "setting": "CD6 wild-type (CD6WT) [2]", "value": "no binding"}, {"measurement": "binding", "setting": "[3]", "value": "no binding"}, {"measurement": "binding", "setting": "CD6 wild-type (CD6WT) [4]", "value": "binds"}]}
